Reference: paper PMC4737164, “DNA recognition for virus assembly through multiple sequence-independent interactions with a helix-turn-helix motif”
For at least one entry, the source does not settle the construct or the ends of the probe. Weaker means in comparison with the reference protein, sequence or condition of that experiment. At least one verdict rests on a figure or table, not on a statement of the authors.

Biological target: SF6 small terminase (GP1) DBD wild type (Bacillus phage SF6) (UniProt P68928)
Assay: SPR
Conditions: 300 mM KCl, no significant effect vs P14; 20 mM HEPES, 150 mM KCl (300 mM in second ReDCaT), pH 7.0, +0.05% Tween 20 for SPR; ReDCaT 20 uM protein; AUC 20 C; recombinant protein; residues 1-68; protein details: C-terminal 3C site-His tag, cleaved; label: 5'-biotin strand 3

**Q.** Does “TTGGGGCAGAAAACATGCAGAAACCGCACGTCCG / CGGACGTGCGGTTTCTGCATGTTTTCTGCCCCAACCTACCCTACGTCCTCCTGC / GCAGGAGGACGTAGGGTAGG [C8A (cumulative)]” bind?
**A.** binds more weakly
